Data as given in PubChem BioAssay AID504774 (Drosophila RNAi Screening Center, 2011).

- Test: 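Fly genes whose loss alters survival after alkylation damage to DNA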 (primary screen)
- System: Drosophila Kc167 cells
- Knock-down reagent: long dsRNA against Drosophila genes, about 0.25 µg dsRNA per well
- Time to read-out: about 6 days: 3 days knock-down, then 3 days with or without MMS
- Treatment: methyl methanesulphonate 0.004% (w/v) for 3 days after knock-down
- Measurement: 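Viability in wells given MMS, read as ATP luminescence, normalised by quantiles plate by plate and averaged across replicates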
- Reading the numbers: mean viability with MMS and viability with MMS: higher = more surviving cells after MMS
The deposit covers about 23,000 reagents; shown is a random part of those with a known target gene and a result. 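Values are quantile-normalised luminescence on an arbitrary scale; higher means more cells surviving MMS.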 Names joined by + are all predicted targets of the reagent.

gene,dsRNA,mean viability with MMS,"viability with MMS, replicate 1","viability with MMS, replicate 2"
bcd + CR14578,DRSC20984,3.54e6,4.06e6,3.98e6
Kdm3 (Lysine demethylase 3),DRSC16393,3.63e6,4.11e6,4.06e6
CaMKII (Calcium/calmodulin-dependent protein kinase II),DRSC17214,3.59e6,4.03e6,4.10e6
Cpr65Az (Cuticular protein 65Az),DRSC09882,3.60e6,3.92e6,4.27e6
Cpr65Az (Cuticular protein 65Az),DRSC22057,3.71e6,4.15e6,4.16e6
sens (senseless),DRSC09263,2.83e6,3.58e6,3.60e6
sens (senseless),DRSC23086,3.62e6,4.06e6,4.16e6
PolA1 (DNA polymerase alpha subunit 1),DRSC16640,3.39e6,3.83e6,3.85e6
yip7 (yippee interacting protein 7),DRSC11410,3.51e6,4.04e6,3.94e6
CG1640,DRSC19750,3.58e6,3.94e6,4.17e6
RabX4,DRSC22189,3.62e6,4.05e6,4.10e6
Ref2 (RNA and export factor binding protein 2),DRSC02563,3.74e6,4.30e6,4.06e6
CG6435,DRSC06987,3.64e6,4.06e6,4.15e6
unc-13-4A,DRSC10201,3.79e6,4.20e6,4.36e6
unc-13-4A,DRSC10202,3.64e6,4.02e6,4.26e6
unc-13-4A,DRSC10203,2.83e6,3.45e6,3.47e6
unc-13-4A,DRSC11013,3.72e6,4.21e6,4.21e6
aralar1,DRSC13987,3.43e6,3.95e6,3.84e6
aralar1,DRSC16901,3.59e6,4.13e6,4.01e6
CG10969,DRSC09811,3.65e6,4.16e6,4.07e6
CG32599,DRSC19433,3.45e6,3.84e6,3.86e6
Buffy,DRSC05957,3.59e6,4.05e6,4.11e6
CG4467,DRSC15585,3.56e6,4.08e6,4.00e6
ABCB7 (ATP binding cassette subfamily B member 7),DRSC08603,3.41e6,3.94e6,3.80e6
CG5773,DRSC06955,3.60e6,4.01e6,4.14e6
Npl4 (Nuclear protein localization 4),DRSC15615,3.56e6,4.03e6,4.07e6
Npl4 (Nuclear protein localization 4),DRSC15616,3.44e6,3.92e6,3.83e6
Dh31-R (Diuretic hormone 31 Receptor),DRSC06647,3.65e6,4.48e6,3.91e6
Dh31-R (Diuretic hormone 31 Receptor),DRSC06669,3.69e6,4.37e6,4.00e6

3 entries from above, limited to “mean viability with MMS”:
unc-13-4A [DRSC10201]	3.79e6
unc-13-4A [DRSC10202]	3.64e6
unc-13-4A [DRSC10203]	2.83e6
